Data from patent US10730885B1, “Coumarin derivatives” (KING SAUD UNIVERSITY, priority 2019, dated 2020).
Some entries share one result that the patent states for a list of compounds.

Test system: trypsin
Experiment: Proteinase inhibitory activity (trypsin/casein)
Format: biochemical
Settings: 250 μg/ml, mean ± SD (n = 3)
Description: For proteinase inhibitory activity, the reaction mixture (2 ml) contained 0.06 mg trypsin, 20 mM Tris HCl buffer (pH 7.4) and 1 ml test sample (250 μg/ml for each compound). The mixture was incubated for 5 min and then 1 ml of 0.8% (w/v) casein was added. The mixture was incubated for an additional 20 min. 1 ml of 10% perchloric acid was added to arrest the reaction. The cloudy suspension was centrifuged, and the absorbance of the supernatant was read at 280 nm. Reference standard compound aspirin was used as the positive control for this assay. The experiment was performed in triplicate. Percentage inhibition of […] was calculated by using the following formula:
[formula] where Acontrol is the absorbance of the control reaction and Atest is the absorbance of the control reaction with sample.

| Compound | % Inhibition of proteinase activity |
| --- | --- |
| Cc1ccc2oc(=O)c3c(c2c1)OC(N=Cc1ccc(Cl)cc1Cl)=C(C#N)C3c1ccc([N+](=O)[O-])cc1 (racemic) [Compound 8e, (±)-2-((2,4-dichlorobenzylidene)amino)-9-methyl-4-(4-nitrophenyl)-5-oxo-4H,5H-pyrano[3,2-c]chromene-3-carbonitrile] | 41-49% |
| Cc1ccc2oc(=O)c3c(c2c1)OC(N=CN(C)C)=C(C#N)C3c1ccco1 (racemic) [Compound 7b, (±)-N′-(3-cyano-4-(furan-2-yl)-9-methyl-5-oxo-4H,5H-pyrano[3,2-c]chromen-2-yl)-N,N-dimethylformimidamide] | 31-36% |
| O=c1oc2ccc(Cl)cc2c(O)c1S(=O)(=O)Nc1ccccc1 [Compound 11a, 6-Chloro-4-hydroxy-2-oxo-N-phenyl-2H-chromene-3-sulfonamide] | 41-49% |
| Cc1ccc2oc(=O)c(S(=O)(=O)Nc3ccc(C(=O)/C=C/c4ccc(Cl)cc4)cc3)c(O)c2c1 [Compound 12d, (E)-N-(4-(3-(4-chlorophenyl)acryloyl)phenyl)-4-hydroxy-6-methyl-2-oxo-2H-chromene-3-sulfonamide] | 31-36% |
| O=c1oc2ccc(Cl)cc2c(O)c1S(=O)(=O)Nc1ccc(O)cc1 [Compound 11c, 6-Chloro-4-hydroxy-N-(4-hydroxyphenyl)-2-oxo-2H-chromene-3-sulfonamide] | 41-49% |
| COc1cc(C=NC2=C(C#N)C(c3ccco3)c3c(c4cc(C)ccc4oc3=O)O2)cc(OC)c1OC (racemic) [Compound 8d, (±)-4-(furan-2-yl)-9-methyl-5-oxo-2-((3,4,5-trimethoxybenzylidene)amino)-4H,5H-pyrano[3,2-c]chromene-3-carbonitrile] | 41-49% |
| Cc1ccc2oc(=O)c(S(=O)(=O)Nc3ccc(S(=O)(=O)Nc4nccs4)cc3)c(O)c2c1 [Compound 10f, 4-hydroxy-6-methyl-2-oxo-N-(4-(N-(thiazol-2-yl)sulfamoyl)phenyl)-2H-chromene-3-sulfonamide] | 41-49% |
| Cc1ccc2oc(=O)c(S(=O)(=O)Nc3ccc(S(=O)(=O)Nc4ncccn4)cc3)c(O)c2c1 [Compound 10d, 4-hydroxy-6-methyl-2-oxo-N-(4-(N-(pyrimidin-2-yl)sulfamoyl)phenyl)-2H-chromene-3-sulfonamide] | 31-36% |
| Cc1ccc2oc(=O)c3c(c2c1)OC(N)=C(C(N)=O)C3c1ccco1 (racemic) [Compound 6b, (±)-2-amino-4-(furan-2-yl)-9-methyl-5-oxo-4H,5H-pyrano[3,2-c]chromene-3-carboxamide] | 41-49% |
| Cc1ccc2oc(=O)c3c(c2c1)OC(N=CN(C)C)=C(C#N)C3c1ccc([N+](=O)[O-])cc1 (racemic) [Compound 7a, (±)-N′-(3-cyano-9-methyl-4-(4-nitrophenyl)-5-oxo-4H,5H-pyrano[3,2-c]chromen-2-yl)-N,N-dimethylformimidamide] | 31-36% |
